From the supplement of paper PMC8728848
The list shows a part of the results.

Assays:
Assay in all cases: glycan array binding signal (z-score within array); higher = stronger binding
Conditions in all cases: glycan notation: IUPAC condensed, linker removed
[1] = target: Gal(b1-4)GlcNAc(b1-3)Gal(b1-4)Glc
Summary of the method: (§1)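 The Consortium for Functional Glycomics database supplied 3228 glycan arrays, of which those lacking an available protein sequence were dropped. The binding signal, a within-array Z-score, was averaged across arrays of the same protein sequence and across linkers. Negative scores can be read as non-binding.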

[2] = target: Gal(b1-4)GlcNAc(b1-3)Gal(b1-4)GlcNAc
Summary of the method: as §1

[3] = target: Gal(b1-4)GlcNAc(b1-3)Gal(b1-4)GlcNAc(b1-2)Man(a1-3)[Gal(b1-4)GlcNAc(b1-3)Gal(b1-4)GlcNAc(b1-2)Man(a1-6)]Man(b1-4)GlcNAc(b1-4)GlcNAc
Summary of the method: as §1

[4] = target: Gal(b1-4)GlcNAc(b1-3)Gal(b1-4)GlcNAc(b1-2)Man(a1-3)[Gal(b1-4)GlcNAc(b1-3)Gal(b1-4)GlcNAc(b1-2)Man(a1-6)]Man(b1-4)GlcNAc(b1-4)[Fuc(a1-6)]GlcNAc
Summary of the method: as §1

[5] = target: Gal(b1-4)GlcNAc(b1-3)Gal(b1-4)GlcNAc(b1-2)[Gal(b1-4)GlcNAc(b1-3)Gal(b1-4)GlcNAc(b1-6)]Man(a1-6)[Gal(b1-4)GlcNAc(b1-3)Gal(b1-4)GlcNAc(b1-2)Man(a1-3)]Man(b1-4)GlcNAc(b1-4)GlcNAc
Summary of the method: as §1

[6] = target: Gal(b1-4)GlcNAc(b1-3)Gal(b1-4)GlcNAc(b1-2)[Gal(b1-4)GlcNAc(b1-3)Gal(b1-4)GlcNAc(b1-6)]Man(a1-6)[Gal(b1-4)GlcNAc(b1-3)Gal(b1-4)GlcNAc(b1-2)Man(a1-3)]Man(b1-4)GlcNAc(b1-4)[Fuc(a1-6)]GlcNAc
Summary of the method: as §1

[7] = target: Gal(b1-4)GlcNAc(b1-3)Gal(b1-4)GlcNAc(b1-3)Gal(b1-4)GlcNAc
Summary of the method: as §1

[8] = target: Gal(b1-4)GlcNAc(b1-3)Gal(b1-4)GlcNAc(b1-3)Gal(b1-4)GlcNAc(b1-2)Man(a1-3)[Gal(b1-4)GlcNAc(b1-3)Gal(b1-4)GlcNAc(b1-3)Gal(b1-4)GlcNAc(b1-2)Man(a1-6)]Man(b1-4)GlcNAc(b1-4)GlcNAc
Summary of the method: as §1

[9] = target: Gal(b1-4)GlcNAc(b1-3)Gal(b1-4)GlcNAc(b1-3)Gal(b1-4)GlcNAc(b1-2)Man(a1-3)[Gal(b1-4)GlcNAc(b1-3)Gal(b1-4)GlcNAc(b1-3)Gal(b1-4)GlcNAc(b1-2)Man(a1-6)]Man(b1-4)GlcNAc(b1-4)[Fuc(a1-6)]GlcNAc
Summary of the method: as §1

[10] = target: Gal(b1-4)GlcNAc(b1-3)Gal(b1-4)GlcNAc(b1-3)Gal(b1-4)GlcNAc(b1-2)[Gal(b1-4)GlcNAc(b1-3)Gal(b1-4)GlcNAc(b1-3)Gal(b1-4)GlcNAc(b1-6)]Man(a1-6)[Gal(b1-4)GlcNAc(b1-3)Gal(b1-4)GlcNAc(b1-3)Gal(b1-4)GlcNAc(b1-2)Man(a1-3)]Man(b1-4)GlcNAc(b1-4)[Fuc(a1-6)]GlcNAc
Summary of the method: as §1

[11] = target: Gal(b1-4)GlcNAc(b1-3)Gal(b1-4)GlcNAc(b1-3)Gal(b1-4)GlcNAc(b1-3)Gal(b1-4)GlcNAc(b1-2)Man(a1-3)[Gal(b1-4)GlcNAc(b1-3)Gal(b1-4)GlcNAc(b1-3)Gal(b1-4)GlcNAc(b1-3)Gal(b1-4)GlcNAc(b1-2)Man(a1-6)]Man(b1-4)GlcNAc(b1-4)GlcNAc
Summary of the method: as §1

[12] = target: Gal(b1-4)GlcNAc(b1-3)Gal(b1-4)GlcNAc(b1-3)Gal(b1-4)GlcNAc(b1-3)Gal(b1-4)GlcNAc(b1-2)Man(a1-3)[Gal(b1-4)GlcNAc(b1-3)Gal(b1-4)GlcNAc(b1-3)Gal(b1-4)GlcNAc(b1-3)Gal(b1-4)GlcNAc(b1-2)Man(a1-6)]Man(b1-4)GlcNAc(b1-4)[Fuc(a1-6)]GlcNAc
Summary of the method: as §1

[13] = target: Gal(b1-4)GlcNAc(b1-3)Gal(b1-4)GlcNAc(b1-3)Gal(b1-4)GlcNAc(b1-3)Gal(b1-4)GlcNAc(b1-2)[Gal(b1-4)GlcNAc(b1-3)Gal(b1-4)GlcNAc(b1-3)Gal(b1-4)GlcNAc(b1-3)Gal(b1-4)GlcNAc(b1-6)]Man(a1-6)[Gal(b1-4)GlcNAc(b1-3)Gal(b1-4)GlcNAc(b1-3)Gal(b1-4)GlcNAc(b1-3)Gal(b1-4)GlcNAc(b1-2)Man(a1-3)]Man(b1-4)GlcNAc(b1-4)[Fuc(a1-6)]GlcNAc
Summary of the method: as §1

[14] = target: Gal(b1-4)GlcNAc(b1-3)Gal(b1-4)GlcNAc(b1-3)Gal(b1-4)GlcNAc(b1-3)Gal(b1-4)GlcNAc(b1-3)Gal(b1-4)GlcNAc(b1-2)Man(a1-3)[Gal(b1-4)GlcNAc(b1-3)Gal(b1-4)GlcNAc(b1-3)Gal(b1-4)GlcNAc(b1-3)Gal(b1-4)GlcNAc(b1-3)Gal(b1-4)GlcNAc(b1-2)Man(a1-6)]Man(b1-4)GlcNAc(b1-4)GlcNAc
Summary of the method: as §1

[15] = target: Gal(b1-4)GlcNAc(b1-3)Gal(b1-4)GlcNAc(b1-3)Gal(b1-4)GlcNAc(b1-3)Gal(b1-4)GlcNAc(b1-3)Gal(b1-4)GlcNAc(b1-2)Man(a1-3)[Gal(b1-4)GlcNAc(b1-3)Gal(b1-4)GlcNAc(b1-3)Gal(b1-4)GlcNAc(b1-3)Gal(b1-4)GlcNAc(b1-3)Gal(b1-4)GlcNAc(b1-2)Man(a1-6)]Man(b1-4)GlcNAc(b1-4)[Fuc(a1-6)]GlcNAc
Summary of the method: as §1

[16] = target: Gal(b1-4)GlcNAc(b1-3)Gal(b1-4)GlcNAc(b1-3)Gal(b1-4)GlcNAc(b1-3)Gal(b1-4)GlcNAc(b1-3)Gal(b1-4)GlcNAc(b1-2)[Gal(b1-4)GlcNAc(b1-3)Gal(b1-4)GlcNAc(b1-3)Gal(b1-4)GlcNAc(b1-3)Gal(b1-4)GlcNAc(b1-3)Gal(b1-4)GlcNAc(b1-6)]Man(a1-6)[Gal(b1-4)GlcNAc(b1-3)Gal(b1-4)GlcNAc(b1-3)Gal(b1-4)GlcNAc(b1-3)Gal(b1-4)GlcNAc(b1-3)Gal(b1-4)GlcNAc(b1-2)Man(a1-3)]Man(b1-4)GlcNAc(b1-4)[Fuc(a1-6)]GlcNAc
Summary of the method: as §1

[17] = target: Gal(b1-4)GlcNAc(b1-3)Gal(b1-4)GlcNAc(b1-3)Gal(b1-4)GlcNAc(b1-3)Gal(b1-4)GlcNAc(b1-3)Gal(b1-4)GlcNAc(b1-3)Gal(b1-4)GlcNAc(b1-2)Man(a1-3)[Gal(b1-4)GlcNAc(b1-3)Gal(b1-4)GlcNAc(b1-3)Gal(b1-4)GlcNAc(b1-3)Gal(b1-4)GlcNAc(b1-3)Gal(b1-4)GlcNAc(b1-3)Gal(b1-4)GlcNAc(b1-2)Man(a1-6)]Man(b1-4)GlcNAc(b1-4)GlcNAc
Summary of the method: as §1

[18] = target: Gal(b1-4)GlcNAc(b1-3)Gal(b1-4)GlcNAc(b1-3)GalNAc
Summary of the method: as §1

[19] = target: Gal(b1-4)GlcNAc(b1-3)Gal(b1-4)GlcNAc(b1-3)[Gal(b1-4)GlcNAc(b1-3)Gal(b1-4)GlcNAc(b1-6)]GalNAc
Summary of the method: as §1

B1: SP15308F-bth-333-19-333 (Bacteroides thetaiotaomicron) (protein)
chain: SCNNEWESEQYVQMVSFKAPVNAQGVTPIYIRYKPEGKVTYQLPLIVSGSTMNSKDLNVHVGLDLDTLDVLNVEHFGSRKELFFKPLENKYYEFPETVQIPAGECTSLLPIDFALKDLDQVDKWVLPLAIQSNDPSHNYQANPRKFYRRAMLRISPFNDYSGQYSATAYKVYFKGNEKEAIVPEYHTSYVIDDKTIFFYAGLIDIDRLDRKYYKIKFEFTEEKIDLQTRKLKISSDNEDINLVVKGQPSYTVEEEMDATRPYLKHIYVTINNLEYEFTDYTSVPGYPLEYVVKGSLTMERKINTQIPDEDQAIEW
glycan array binding signal (z-score) [1]: 0.117
glycan array binding signal (z-score) [2]: -0.506
glycan array binding signal (z-score) [3]: 1.11
glycan array binding signal (z-score) [4]: -0.157
glycan array binding signal (z-score) [5]: -0.769
glycan array binding signal (z-score) [6]: 1.31
glycan array binding signal (z-score) [7]: -0.415
glycan array binding signal (z-score) [8]: 0.392
glycan array binding signal (z-score) [9]: 1.45
glycan array binding signal (z-score) [10]: 0.279
glycan array binding signal (z-score) [11]: 0.503
glycan array binding signal (z-score) [12]: -0.059
glycan array binding signal (z-score) [13]: 0.077
glycan array binding signal (z-score) [14]: 3.23
glycan array binding signal (z-score) [15]: 1.33
glycan array binding signal (z-score) [16]: 1.21
glycan array binding signal (z-score) [17]: 0.041
glycan array binding signal (z-score) [18]: 0.082
glycan array binding signal (z-score) [19]: 0.86
